Laboratory results reported in PMC10484922, “Discovery of a selective and biologically active low-molecular weight antagonist of human interleukin-1β” (Nature Communications, 2023).
No constants are given. Whether binding was seen depends on the method and setting. Some entries that bind do so weakly or less than the wild type. Where a sequence is shown, tags or fusion partners need not be part of it.

Sequences of proteins named here, by UniProt entry; tags and fusion partners are left off. Residues count along the entry.
UniProt P14778, residues 18-332: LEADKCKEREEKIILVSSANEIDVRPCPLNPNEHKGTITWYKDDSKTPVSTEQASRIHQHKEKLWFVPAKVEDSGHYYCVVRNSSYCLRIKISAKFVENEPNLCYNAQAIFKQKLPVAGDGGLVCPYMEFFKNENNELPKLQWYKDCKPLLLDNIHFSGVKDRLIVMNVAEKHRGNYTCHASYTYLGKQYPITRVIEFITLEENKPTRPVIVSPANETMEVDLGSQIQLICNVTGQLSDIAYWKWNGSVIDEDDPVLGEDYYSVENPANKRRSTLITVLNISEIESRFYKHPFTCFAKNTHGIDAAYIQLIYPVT

Target: hIL-1R1 (1–332; Alexa 647 labeled) (human) (UniProt P14778)
Assay: AlphaScreen or HTRF; TR-FRET: His-tagged IL-1β or IL-1α […], hIL-1R1 (1–332; Alexa 647 labeled) 50 nM, anti-His-Europium W1024 1 nM; 20 mM Tris pH 7.5, 150 mM NaCl, 1 mM EDTA, 0.5% Pluronic, 0.02% BSA; room temperature; with or without graded concentrations of low-molecular weight compounds; both purified

B1: recombinant His-tagged IL-1α (ligand, UniProt P01583 113-271)
chain: SAPFSFLSNVKYNFMRIIKYEFILNDALNQSIIRANDQYLTAAALHNLDEAVKFDMGAYKSSKDDAKITVILRISKTQLYVTAQDEDQPVLLKEMPEIPKTITGSETNLLFFWETHGTKNYFTSVAHPNLFIATKQDYWVCLAGGPPSITDFQILENQA
- binding: binds
